In the test the target is T1, FLAG-MDA5 (melanoma differentiation-associated protein 5) (UniProt Q9BYX4).
T1 sequence: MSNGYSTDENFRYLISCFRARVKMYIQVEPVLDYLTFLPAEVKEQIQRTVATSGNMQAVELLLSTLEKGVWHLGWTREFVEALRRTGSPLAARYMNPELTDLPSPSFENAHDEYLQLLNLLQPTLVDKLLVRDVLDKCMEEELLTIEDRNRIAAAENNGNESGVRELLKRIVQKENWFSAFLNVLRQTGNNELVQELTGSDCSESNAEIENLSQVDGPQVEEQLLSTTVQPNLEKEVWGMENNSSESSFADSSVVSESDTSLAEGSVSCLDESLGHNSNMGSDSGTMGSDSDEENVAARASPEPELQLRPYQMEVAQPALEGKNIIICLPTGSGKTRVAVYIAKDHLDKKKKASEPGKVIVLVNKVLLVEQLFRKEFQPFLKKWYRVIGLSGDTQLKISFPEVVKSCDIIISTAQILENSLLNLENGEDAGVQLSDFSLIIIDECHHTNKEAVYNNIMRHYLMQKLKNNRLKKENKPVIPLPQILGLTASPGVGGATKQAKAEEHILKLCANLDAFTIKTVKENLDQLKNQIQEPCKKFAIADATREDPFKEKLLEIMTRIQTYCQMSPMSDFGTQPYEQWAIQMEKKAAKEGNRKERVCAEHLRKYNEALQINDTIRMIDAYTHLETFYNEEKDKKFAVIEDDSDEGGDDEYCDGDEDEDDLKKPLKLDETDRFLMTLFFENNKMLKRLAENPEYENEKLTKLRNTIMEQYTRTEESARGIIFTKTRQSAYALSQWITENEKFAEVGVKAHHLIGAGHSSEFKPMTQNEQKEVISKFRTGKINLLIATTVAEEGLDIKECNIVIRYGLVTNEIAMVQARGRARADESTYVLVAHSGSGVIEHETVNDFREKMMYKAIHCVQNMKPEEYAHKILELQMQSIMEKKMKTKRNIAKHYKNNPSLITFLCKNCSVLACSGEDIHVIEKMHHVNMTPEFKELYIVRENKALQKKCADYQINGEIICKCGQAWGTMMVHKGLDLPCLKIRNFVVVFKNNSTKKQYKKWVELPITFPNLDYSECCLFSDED
Briefly: co-IP.

Chains of the proteins cited; added tags and fusions are not shown.
UniProt Q01629: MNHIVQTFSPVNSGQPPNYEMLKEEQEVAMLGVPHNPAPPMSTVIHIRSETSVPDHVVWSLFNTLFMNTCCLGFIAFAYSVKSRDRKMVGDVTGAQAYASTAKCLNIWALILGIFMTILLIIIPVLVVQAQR

No constants are given. Whether binding was seen depends on the method and setting. Binding seen in cells or lysates may run through a third protein. Some results given as binding are weak or reduced against the parent protein; the word gives no strength. Where a sequence is shown, tags or fusion partners need not be part of it.

In publication PMC10141943 one finds binding data, which are given here for one substance.

For the substance “Myc-IFITM2 (human interferon-inducible transmembrane protein 2) (from UniProt Q01629 1-132)”, the binding entry is on record as “binds”.
